Reference: publication PMC9374683
Results are given in words; binding and its absence hold for the method and conditions named. Binding can be weak; no strength is given. Where a sequence is shown, tags or fusion partners need not be part of it.

Target: T1, HIS6-tagged CtpC (M. tuberculosis) (UniProt P9WPT5)
T1 sequence: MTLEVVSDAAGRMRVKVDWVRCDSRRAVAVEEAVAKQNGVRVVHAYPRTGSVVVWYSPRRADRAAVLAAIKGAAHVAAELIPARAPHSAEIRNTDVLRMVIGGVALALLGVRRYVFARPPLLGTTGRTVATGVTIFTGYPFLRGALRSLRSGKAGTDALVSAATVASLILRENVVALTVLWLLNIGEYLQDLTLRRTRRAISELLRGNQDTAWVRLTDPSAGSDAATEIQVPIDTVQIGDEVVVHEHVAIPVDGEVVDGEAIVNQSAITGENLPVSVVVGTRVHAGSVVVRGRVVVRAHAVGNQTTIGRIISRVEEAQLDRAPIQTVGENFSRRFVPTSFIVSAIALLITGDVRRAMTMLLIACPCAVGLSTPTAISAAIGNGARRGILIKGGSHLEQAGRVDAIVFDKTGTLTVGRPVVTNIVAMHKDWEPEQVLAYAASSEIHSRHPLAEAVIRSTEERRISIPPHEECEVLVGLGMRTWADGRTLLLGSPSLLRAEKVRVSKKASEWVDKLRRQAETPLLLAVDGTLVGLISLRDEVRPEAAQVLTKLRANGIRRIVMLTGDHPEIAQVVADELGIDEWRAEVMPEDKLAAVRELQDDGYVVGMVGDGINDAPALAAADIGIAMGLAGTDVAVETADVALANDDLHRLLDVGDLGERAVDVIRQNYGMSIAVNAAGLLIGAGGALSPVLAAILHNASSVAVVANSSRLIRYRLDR
Assay: native gel or EMSA; Blue-native PAGE (3-12% Bis-Tris) of membrane proteins solubilised with 0.25% DDM from M. smegmatis Δ2 membrane fractions; PVDF blot revealed by FLAG and HIS6 immuno-detection

## FLAG-tagged PacL1 (M. tuberculosis)
  binding: binds
